This data set deals with GK rats. Put plainly: Efficacy in GK model (plasma glucose, insulin, lipids). In kind it is in vivo, Goto-Kakizaki rats (GK). The procedure: Rosiglitazone Hydrochloride tablets were purchased from Zhejiang wanma pharmaceutical Co., Ltd. Mangiferin and mangiferin calcium were suspended with 3% sodium carboxymethyl cellulose before use.
Goto-Kakizaki rats (GK) (16 weeks age, ♀ ♂) were purchased from Shanghai SLAC laboratory animal Co., Ltd. The animals were kept in IVC cages with temperature (22° C.). There are two rats in each cage.
Experimental group: GK rats group (n=10); mangiferin groups (20, 40, 80 mg/kg, each 10 rats); mangiferin calcium groups (10, 20, 40 mg/kg, each 10 rats); Rosiglitazone Hydrochloride group [3 mg/kg, n=10]. Test samples or vehicle control was given orally for 30 days. GK rats group were given vehicle.
The blood specimens were taken by abdominal aorta at the end of the test. Plasma glucose (GLU), insulin (INS), triglycerides (TG), total cholesterol (TC), high density lipoprotein (HDL), low density lipoprotein (LDL) were determined
GLU, TC, TG, HDL and LDL levels were determined using GF-D800 semi-auto chemist which was purchased from Shandong Gaomi Caihong Analytical Instrument Co., Ltd. Insulin: radioimmunoassay (RIA), γ counter counts. insulin RIA Kit was purchased from Shandong Weifang City three-dimensional (3V) Biological company.
Statistics: The results have been calculated as mean±SD ( x±SD) and comparisons of the data have been done by t-test.

Our source for the Weigh values is patent US8334267B2, “Mangiferin calcium salts, the method for its preparation and its use” (Hainan Deze Drug Research Co., Ltd., priority 2007, dated 2012).

Molecules are shown by their SMILES.

`O=c1c2cc(O)c(O)cc2oc2cc([O-])c([C@@H]3O[C@H](CO)[C@@H](O)[C@H](O)[C@H]3O)c(O)c12.O=c1c2cc([O-])c(O)cc2oc2cc(O)c([C@@H]3O[C@H](CO)[C@@H](O)[C@H](O)[C@H]3O)c(O)c12.[Ca+2]` [Mangiferin calcium, mangiferin calcium]: the Weigh is 318.63 ± 16.94 g (10 mg/kg orally for 30 days), 307.15 ± 13.67 g (20 mg/kg orally for 30 days) and 307.61 ± 13.88 g (40 mg/kg orally for 30 days).

Regarding `O=c1c2cc(O)c(O)cc2oc2cc(O)c(C3OC(CO)C(O)C(O)C3O)c(O)c12` (stereo not drawn) [Mangiferin], the Weigh (20 mg/kg orally for 30 days) came to 319.56 ± 21.50 g, the Weigh (40 mg/kg orally for 30 days) worked out at 311.85 ± 10.40 g and the Weigh (80 mg/kg orally for 30 days) is on record as 312.67 ± 10.43 g.
